Measured values from the supplement of paper PMC10849652.
The list shows a part of the results.

Sequences of proteins named here, by UniProt entry; tags and fusion partners are left off. A change or cut given only in a name is not applied to a line headed by its entry.
UniProt Q8TBQ9: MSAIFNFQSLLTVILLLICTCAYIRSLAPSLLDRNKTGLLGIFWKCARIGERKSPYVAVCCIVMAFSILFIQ
UniProt Q9P0S9: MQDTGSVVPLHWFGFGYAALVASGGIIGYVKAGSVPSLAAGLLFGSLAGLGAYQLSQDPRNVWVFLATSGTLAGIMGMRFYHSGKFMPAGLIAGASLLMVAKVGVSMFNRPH
UniProt Q9Y4G6: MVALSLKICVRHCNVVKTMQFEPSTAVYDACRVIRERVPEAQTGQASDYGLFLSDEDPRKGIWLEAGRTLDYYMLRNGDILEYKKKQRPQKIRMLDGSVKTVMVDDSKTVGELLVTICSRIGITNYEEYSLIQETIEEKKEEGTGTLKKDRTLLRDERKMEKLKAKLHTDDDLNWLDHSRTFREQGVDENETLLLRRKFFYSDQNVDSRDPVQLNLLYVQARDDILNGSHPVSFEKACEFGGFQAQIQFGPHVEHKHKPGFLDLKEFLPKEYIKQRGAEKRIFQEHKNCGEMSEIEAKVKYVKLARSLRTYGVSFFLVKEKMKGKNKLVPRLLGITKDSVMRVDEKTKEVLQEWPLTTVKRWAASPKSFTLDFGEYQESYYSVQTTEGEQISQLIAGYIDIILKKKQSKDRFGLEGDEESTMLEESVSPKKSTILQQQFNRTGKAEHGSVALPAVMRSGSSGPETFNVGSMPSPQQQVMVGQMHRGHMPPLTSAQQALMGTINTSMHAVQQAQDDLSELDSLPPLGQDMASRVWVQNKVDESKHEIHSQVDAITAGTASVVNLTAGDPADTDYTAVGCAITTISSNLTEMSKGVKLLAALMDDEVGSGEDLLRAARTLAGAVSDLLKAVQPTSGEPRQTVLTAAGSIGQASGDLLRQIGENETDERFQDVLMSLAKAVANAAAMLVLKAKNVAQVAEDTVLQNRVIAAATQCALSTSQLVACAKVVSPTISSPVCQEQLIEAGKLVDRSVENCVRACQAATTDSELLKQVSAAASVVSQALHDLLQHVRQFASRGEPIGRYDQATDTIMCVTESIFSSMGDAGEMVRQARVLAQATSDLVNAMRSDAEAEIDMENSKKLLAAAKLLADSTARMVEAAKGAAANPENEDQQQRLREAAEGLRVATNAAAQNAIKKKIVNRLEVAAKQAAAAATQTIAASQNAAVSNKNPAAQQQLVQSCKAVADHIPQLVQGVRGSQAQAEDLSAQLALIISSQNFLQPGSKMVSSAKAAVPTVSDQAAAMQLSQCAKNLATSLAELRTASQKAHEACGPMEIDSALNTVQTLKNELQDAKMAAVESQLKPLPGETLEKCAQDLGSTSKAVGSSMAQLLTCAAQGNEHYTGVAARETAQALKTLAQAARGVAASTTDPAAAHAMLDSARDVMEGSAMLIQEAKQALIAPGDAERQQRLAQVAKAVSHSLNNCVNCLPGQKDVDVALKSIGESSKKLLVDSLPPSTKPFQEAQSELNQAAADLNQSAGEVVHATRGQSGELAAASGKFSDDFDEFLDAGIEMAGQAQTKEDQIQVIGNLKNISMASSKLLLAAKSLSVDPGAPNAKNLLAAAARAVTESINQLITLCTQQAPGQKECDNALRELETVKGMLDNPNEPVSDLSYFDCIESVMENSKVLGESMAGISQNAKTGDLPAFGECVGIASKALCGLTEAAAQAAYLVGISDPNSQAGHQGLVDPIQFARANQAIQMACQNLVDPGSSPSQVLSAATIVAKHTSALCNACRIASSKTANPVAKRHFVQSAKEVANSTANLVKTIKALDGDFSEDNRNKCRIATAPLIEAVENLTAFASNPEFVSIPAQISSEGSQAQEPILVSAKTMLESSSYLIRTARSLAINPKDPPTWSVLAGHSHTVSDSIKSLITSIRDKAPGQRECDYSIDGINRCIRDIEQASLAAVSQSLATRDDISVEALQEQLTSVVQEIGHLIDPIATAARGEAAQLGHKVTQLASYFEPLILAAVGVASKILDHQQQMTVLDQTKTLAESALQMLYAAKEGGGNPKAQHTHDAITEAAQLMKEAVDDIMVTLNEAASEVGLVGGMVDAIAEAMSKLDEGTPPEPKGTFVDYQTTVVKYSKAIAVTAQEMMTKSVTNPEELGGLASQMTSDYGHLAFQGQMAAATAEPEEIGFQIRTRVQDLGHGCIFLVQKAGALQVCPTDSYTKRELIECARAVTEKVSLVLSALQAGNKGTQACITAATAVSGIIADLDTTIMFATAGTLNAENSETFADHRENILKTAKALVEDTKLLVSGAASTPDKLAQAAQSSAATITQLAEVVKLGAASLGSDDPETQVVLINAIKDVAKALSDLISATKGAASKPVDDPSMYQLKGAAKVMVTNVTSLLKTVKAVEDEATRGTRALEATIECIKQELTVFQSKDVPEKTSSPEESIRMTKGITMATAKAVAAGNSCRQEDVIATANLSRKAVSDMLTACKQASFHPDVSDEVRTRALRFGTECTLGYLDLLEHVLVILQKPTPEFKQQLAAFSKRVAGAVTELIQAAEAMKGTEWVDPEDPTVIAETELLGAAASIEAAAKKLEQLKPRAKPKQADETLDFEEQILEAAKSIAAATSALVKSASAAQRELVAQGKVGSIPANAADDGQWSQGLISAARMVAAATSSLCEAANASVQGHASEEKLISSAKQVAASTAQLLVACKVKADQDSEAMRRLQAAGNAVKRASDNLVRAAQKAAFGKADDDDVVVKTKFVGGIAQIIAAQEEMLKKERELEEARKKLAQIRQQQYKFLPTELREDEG
UniProt Q9BVC6: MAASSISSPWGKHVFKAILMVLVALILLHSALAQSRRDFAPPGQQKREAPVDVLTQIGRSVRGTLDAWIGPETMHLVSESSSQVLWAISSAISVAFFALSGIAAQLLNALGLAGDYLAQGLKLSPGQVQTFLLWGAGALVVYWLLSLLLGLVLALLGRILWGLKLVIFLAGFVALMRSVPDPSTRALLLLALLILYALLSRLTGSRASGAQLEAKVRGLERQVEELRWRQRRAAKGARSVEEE
UniProt Q9BRN9: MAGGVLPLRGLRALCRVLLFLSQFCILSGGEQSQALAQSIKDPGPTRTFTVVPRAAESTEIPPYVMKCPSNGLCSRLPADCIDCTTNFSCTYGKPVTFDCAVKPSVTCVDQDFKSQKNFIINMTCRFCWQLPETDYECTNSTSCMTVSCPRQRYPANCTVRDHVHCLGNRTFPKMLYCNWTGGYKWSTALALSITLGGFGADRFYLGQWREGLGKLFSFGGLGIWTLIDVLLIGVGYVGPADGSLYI
UniProt Q96B77: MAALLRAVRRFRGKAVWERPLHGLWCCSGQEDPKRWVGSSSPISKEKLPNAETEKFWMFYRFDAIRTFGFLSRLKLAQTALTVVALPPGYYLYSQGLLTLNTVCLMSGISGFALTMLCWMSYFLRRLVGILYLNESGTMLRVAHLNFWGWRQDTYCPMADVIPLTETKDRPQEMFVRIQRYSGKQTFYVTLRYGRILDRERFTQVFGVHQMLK
UniProt Q96I45: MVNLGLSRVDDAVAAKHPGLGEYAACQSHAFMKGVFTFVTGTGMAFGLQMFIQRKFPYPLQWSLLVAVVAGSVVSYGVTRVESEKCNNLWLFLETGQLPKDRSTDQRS
UniProt Q6PI78: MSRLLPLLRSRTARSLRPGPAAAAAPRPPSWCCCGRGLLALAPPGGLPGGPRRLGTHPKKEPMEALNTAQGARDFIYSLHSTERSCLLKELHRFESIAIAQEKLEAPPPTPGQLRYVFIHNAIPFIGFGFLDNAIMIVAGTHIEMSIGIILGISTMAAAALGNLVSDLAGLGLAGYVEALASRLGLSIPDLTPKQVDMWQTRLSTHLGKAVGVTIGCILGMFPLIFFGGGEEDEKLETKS
UniProt Q8NBN3: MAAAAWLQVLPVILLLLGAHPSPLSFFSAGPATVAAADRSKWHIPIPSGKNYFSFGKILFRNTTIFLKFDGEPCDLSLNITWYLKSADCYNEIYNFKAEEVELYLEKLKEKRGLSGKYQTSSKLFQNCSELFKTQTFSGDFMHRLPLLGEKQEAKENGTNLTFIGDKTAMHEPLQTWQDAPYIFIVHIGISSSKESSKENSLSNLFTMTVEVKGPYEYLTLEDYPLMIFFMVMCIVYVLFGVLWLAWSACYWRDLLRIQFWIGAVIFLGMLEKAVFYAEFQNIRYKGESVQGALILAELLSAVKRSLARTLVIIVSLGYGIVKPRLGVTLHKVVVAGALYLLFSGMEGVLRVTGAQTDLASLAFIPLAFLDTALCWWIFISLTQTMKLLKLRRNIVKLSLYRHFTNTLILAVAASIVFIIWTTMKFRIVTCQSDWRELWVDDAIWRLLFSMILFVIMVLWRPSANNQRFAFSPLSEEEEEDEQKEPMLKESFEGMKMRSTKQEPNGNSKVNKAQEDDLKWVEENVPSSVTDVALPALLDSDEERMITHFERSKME
UniProt P57088: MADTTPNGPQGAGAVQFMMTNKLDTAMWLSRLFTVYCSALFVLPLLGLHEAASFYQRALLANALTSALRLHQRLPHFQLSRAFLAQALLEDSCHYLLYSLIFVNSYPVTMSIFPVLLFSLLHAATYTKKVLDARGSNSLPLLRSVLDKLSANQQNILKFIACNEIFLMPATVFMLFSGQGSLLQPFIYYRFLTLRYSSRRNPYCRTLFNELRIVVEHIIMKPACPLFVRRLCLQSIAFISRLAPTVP
UniProt Q9NX00: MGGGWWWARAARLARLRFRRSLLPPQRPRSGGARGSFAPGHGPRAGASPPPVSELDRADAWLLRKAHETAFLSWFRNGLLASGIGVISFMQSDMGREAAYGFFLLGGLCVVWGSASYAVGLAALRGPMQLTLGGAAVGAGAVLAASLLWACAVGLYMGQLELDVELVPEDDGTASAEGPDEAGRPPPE
UniProt Q9HD45: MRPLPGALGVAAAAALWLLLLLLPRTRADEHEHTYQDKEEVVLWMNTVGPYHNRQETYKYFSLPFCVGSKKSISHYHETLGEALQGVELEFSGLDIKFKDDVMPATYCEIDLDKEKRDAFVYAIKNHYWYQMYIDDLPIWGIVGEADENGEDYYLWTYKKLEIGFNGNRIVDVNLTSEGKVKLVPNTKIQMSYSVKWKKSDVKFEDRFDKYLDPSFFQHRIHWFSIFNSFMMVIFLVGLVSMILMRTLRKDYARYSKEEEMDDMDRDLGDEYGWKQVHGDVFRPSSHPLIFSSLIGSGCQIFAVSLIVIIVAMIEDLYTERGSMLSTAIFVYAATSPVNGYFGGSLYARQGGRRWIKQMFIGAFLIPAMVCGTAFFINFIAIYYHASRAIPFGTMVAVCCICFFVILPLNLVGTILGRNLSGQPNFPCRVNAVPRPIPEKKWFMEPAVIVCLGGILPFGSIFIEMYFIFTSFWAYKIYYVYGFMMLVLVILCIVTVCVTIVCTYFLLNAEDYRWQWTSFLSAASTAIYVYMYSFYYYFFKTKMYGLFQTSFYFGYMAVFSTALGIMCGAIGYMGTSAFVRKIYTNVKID
UniProt P42167: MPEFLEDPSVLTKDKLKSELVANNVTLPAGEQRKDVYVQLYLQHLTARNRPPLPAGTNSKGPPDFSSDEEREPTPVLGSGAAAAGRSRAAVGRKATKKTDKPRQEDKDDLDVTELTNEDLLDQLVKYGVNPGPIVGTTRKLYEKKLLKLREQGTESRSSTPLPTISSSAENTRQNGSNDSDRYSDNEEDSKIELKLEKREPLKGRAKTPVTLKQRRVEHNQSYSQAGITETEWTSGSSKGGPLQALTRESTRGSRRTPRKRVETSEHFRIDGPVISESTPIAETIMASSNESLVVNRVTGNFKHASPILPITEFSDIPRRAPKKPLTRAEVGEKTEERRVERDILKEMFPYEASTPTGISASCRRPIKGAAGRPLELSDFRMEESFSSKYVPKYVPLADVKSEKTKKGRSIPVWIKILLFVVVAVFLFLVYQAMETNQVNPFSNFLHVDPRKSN
UniProt Q9H0R3: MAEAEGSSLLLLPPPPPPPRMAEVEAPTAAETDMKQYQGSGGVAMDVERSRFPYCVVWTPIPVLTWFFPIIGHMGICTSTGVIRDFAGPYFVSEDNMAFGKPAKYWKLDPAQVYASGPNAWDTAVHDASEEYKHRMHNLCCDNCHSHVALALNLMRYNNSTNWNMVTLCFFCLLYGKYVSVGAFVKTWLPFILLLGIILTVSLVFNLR
UniProt Q9NV96: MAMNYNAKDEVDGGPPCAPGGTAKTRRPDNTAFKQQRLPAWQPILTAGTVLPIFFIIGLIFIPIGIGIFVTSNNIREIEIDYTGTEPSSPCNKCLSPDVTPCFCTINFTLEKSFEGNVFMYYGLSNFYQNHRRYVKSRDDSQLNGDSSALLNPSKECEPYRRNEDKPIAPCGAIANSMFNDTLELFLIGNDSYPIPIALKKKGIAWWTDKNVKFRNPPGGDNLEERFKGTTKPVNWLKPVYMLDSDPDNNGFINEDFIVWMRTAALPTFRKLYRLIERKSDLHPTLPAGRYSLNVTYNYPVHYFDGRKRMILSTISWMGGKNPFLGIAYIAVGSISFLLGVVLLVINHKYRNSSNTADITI

compound: CON(C)C(=O)N1N=C(c2cc(F)ccc2F)S[C@@]1(CCCN)c1ccccc1 [filanesib]; experiment: log2 fold change, soluble protein after heating vs DMSO (PISA); higher = thermal stabilisation; K562 cells, 10 uM, 30 min; active = over 0.2 and 3.5 SD of the protein, either way, in both replicates (recomputed)
Summary of the method: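 Soluble protein was defined as the supernatant after 21,000xg for 90 min. It came from K562 cells at 2×10^6 cells/mL given 10 μM compound for 30 min, heated in aliquots for 3 min across 48°C-58°C, pooled, and extracted in PBS with 0.5% NP-40 at 4°C, and was quantified by TMTpro 16plex LC-MS/MS with equalised channel sums. Thermal stability against control samples, from duplicates, is reported as log2 fold change.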

log2 fold change, inactive:
TMEM245 (UniProt Q9H330) -0.059, TMEM167A (UniProt Q8TBQ9) -0.051, TMOD2 (UniProt Q9NZR1) 0.015, TMED4 (UniProt Q7Z7H5) -0.077, TMEM14C (UniProt Q9P0S9) 0.131, TLN2 (UniProt Q9Y4G6) 0.035, TMEM109 (UniProt Q9BVC6) -0.094, TM2D3 (UniProt Q9BRN9) 0.034, TMEM186 (UniProt Q96B77) -0.035, TMEM141 (UniProt Q96I45) 0.035, TMEM65 (UniProt Q6PI78) -0.246, TMEM87A (UniProt Q8NBN3) 0.014, TMEM33 (UniProt P57088) -0.097, TLN1 (UniProt Q9Y490) -0.013, TNFRSF10B (UniProt O14763) 0.099, TMEM160 (UniProt Q9NX00) 0.102, TM9SF3 (UniProt Q9HD45) 0.018, TMPO isoform 2 (UniProt P42167) -0.51, TMOD3 (UniProt Q9NYL9) -0.019, TMEM222 (UniProt Q9H0R3) 0.062, TMEM185B (UniProt Q9H7F4) -0.095, TMA16 (UniProt Q96EY4) 0.185, TMEM30A (UniProt Q9NV96) 0.057
